Experimental data from patent publication US4472305A (Sterling Drug Inc., priority 1983, dated 1984).
Some peptides are written in HELM: one residue between dots, names in brackets for other building blocks, links after the first $.

Assay: general procedure: solution-phase peptide synthesis; mixed anhydride (isobutyl chloroformate or diphenylphosphinyl chloride); acyl az
[1] = coupling step, phosphate, hydrochloride or free base (per example)
[2] = coupling step, phosphate, hydrochloride or free base (per example), run 1
[3] = coupling step, phosphate, hydrochloride or free base (per example), run 2
[4] = late stage modification step, phosphate, hydrochloride or free base (per example)
[5] = late stage modification step, trifluoroacetate salt
[6] = late stage modification step, phosphate (1:1) salt sesquihydrate
[7] = late stage modification step, phosphate (1:1) salt
[8] = late stage modification step, phosphate (1:2) salt dihydrate
[9] = late stage modification step, phosphate (1:1) salt dihydrate
[10] = late stage modification step, hydrochloride salt monohydrate
[11] = late stage modification step, hydrochloride salt trihydrate
[12] = late stage modification step, phosphate (1:1) salt tetrahydrate

BocDBpa-DTrp-Leu-MetNH2
step yield [1]: 19%

BocDPro-Phe-Phe-Gly-Leu-MetNH2
step yield [1]: 58%

BocLBpa-DTrp-Leu-MetNH2
step yield [1]: 19%

BocPro-DBpa-Phe-DPhe-Leu-MetNH2
step yield [1]: 44%

BocPro-DPhe-Bgl-DPhe-Leu-MetNH2
step yield [1]: 58%

BocPro-DPhe-DBpa-DTrp-Leu-MetNH2
step yield [1]: 46%

BocPro-DPhe-Hfe-DPhe-Leu-MetNH2
step yield [1]: 69%

BocPro-DPhe-LBpa-DTrp-Leu-MetNH2
step yield [1]: 66%

BocPro-DPhe-Pgl-DPhe-Leu-MetNH2
step yield [1]: 68%

BocPro-DPhe-Phe-DPhe-Leu-MetNH2
step yield [1]: 91%

BocPro-DPhe-Phe-DPhe-Leu-NleNH2
step yield [1]: 51%

BocPro-DPhe-Phe-Gly-Leu-MetNH2
step yield [1]: 82%

BocPro-DPhe-Phe-Trp-Leu-MetNH2
step yield [1]: 97%

BocPro-DPhg-Phe-Dphe-Leu-MetNH2
step yield [1]: 89%

BocPro-DTrp-Gly-DTrp-Leu-MetNH2
step yield [1]: 36%

BocPro-DTrp-MePhe-DTrp-Leu-MetNH2
step yield [1]: 31%

BocPro-DTrp-Phe-DArg(Tos)-Leu-MetNH2
step yield [1]: 46%

BocPro-DTrp-Phe-DLys(Boc)-Leu-MetNH2
step yield [1]: 46%

BocPro-DTrp-Phe-DTrp-Leu-MeMetNH2
step yield [1]: 60%

BocPro-DTrp-Phe-DTrp-Leu-MeNleNH2
step yield [1]: 64%

BocPro-DTrp-Phe-DTrp-Leu-MetNH2
step yield [2]: 60%
step yield [3]: 57%

BocPro-DTrp-Phe-DTrp-MeLeu-MetNH2
step yield [1]: 64%

BocPro-DTrp-Phe-MeDTrp-Leu-MetNH2
step yield [1]: 57%

BocPro-DTrp-Phe-MeDTrpNHNH2
step yield [4]: 92%

BocPro-DTrp-Phe-MeDTrpOMe
step yield [1]: 27%

BocPro-LBpa-Phe-DPhe-Leu-MetNH2
step yield [1]: 51%

BocPro-MeDTrp-Phe-DTrp-Leu-MetNH2
step yield [1]: 20%

BocPro-MePhe-Phe-Gly-Leu-MetNH2
step yield [1]: 50%

BocPro-Pcp-Pcp-Gly-Leu-MetNH2
step yield [1]: 35%

BocPro-Phe-MePhe-Gly-Leu-MetNH2
step yield [1]: 100%

BocPro-Phe-MePhe-GlyOBz
step yield [1]: 55%

BocPro-Phe-MePhe-GlyOH
step yield [4]: 100%

BocPro-Phe-MePhe-Sar-Leu-MetNH2
step yield [1]: 75%

BocPro-Phe-Phe-CabLeu-MetNH2
step yield [1]: 36%

BocPro-Phe-Phe-DAla-Leu-MetNH2
step yield [1]: 66%

BocPro-Phe-Phe-Glu(tBu)-Leu-MetNH2
step yield [1]: 77%

BocPro-Phe-Phe-Glu(tBu)NHNH2
step yield [4]: 58%

BocPro-Phe-Phe-Glu(tBu)OMe
step yield [1]: 22%

BocPro-Phe-Phe-Gly-DLeu-MetNH2
step yield [1]: 59%

BocPro-Phe-Phe-Gly-Gal-MetNH2
step yield [1]: 28%

BocPro-Phe-Phe-Gly-Leu-DMetNH2
step yield [1]: 60%

BocPro-Phe-Phe-Gly-Leu-MetNH2 (Example 7)
step yield [1]: 79%

BocPro-Phe-Phe-Gly-Leu-NleNH2
step yield [1]: 69%

BocPro-Phe-Phe-Gly-MeLeu-MetNH2
step yield [1]: 49%

BocPro-Phe-Phe-GlyOBz
step yield [2]: 76%
step yield [3]: 66%

BocPro-Phe-Phe-GlyOH
step yield (late stage modification step, phosphate, hydrochloride or free base (per example), run 1): 90%
step yield (late stage modification step, phosphate, hydrochloride or free base (per example), run 2): 100%

BocPro-Phe-Phe-LDap(Boc)- LeuNHNH2
step yield [4]: 36%

BocPro-Phe-Phe-LDap(Boc)-Leu-MetNH2
step yield [1]: 67%

BocPro-Phe-Phe-LDap(Boc)-LeuOMe
step yield [1]: 75%

BocPro-Phe-Phe-Sar-Leu-MetNH2
step yield [1]: 45%

HDBpa-DTrp-Leu-MetNH2
step yield [5]: 100%

HLBpa-DTrp-Leu-MetNH2
step yield [5]: 100%

HPro-DPhe-Phe-DTrp-Leu-MetNH2
step yield (late stage modification step, phosphate (1:2) salt tetrahydrate): 32%

HPro-DTrp-Phe-DArg(Tos)-Leu-MetNH2
step yield [4]: 78%

HPro-MeDTrp-Phe-DTrp-Leu-MetNH2
step yield (late stage modification step, phosphate salt monohydrate): 67%

HPro-Phe-Phe-CabLeu-MetNH2
step yield (late stage modification step, hydrochloride salt, cyclic, sequence written open): 62%

PEPTIDE1{P.F.F.E.L.M.[am]}$$$$V2.0
step yield (late stage modification step, hydrochloride salt): 38%

PEPTIDE1{P.F.F.G.L.[Nle].[am]}$$$$V2.0
step yield [6]: 65%

PEPTIDE1{P.F.F.G.L.[dM].[am]}$$$$V2.0
step yield [6]: 72%

PEPTIDE1{P.F.F.G.[Gal].M.[am]}$$$$V2.0
step yield (late stage modification step, dihydrochloride acetate salt hydrate): 35%

PEPTIDE1{P.F.F.G.[MeLeu].M.[am]}$$$$V2.0
step yield (late stage modification step, free base): 36%

PEPTIDE1{P.F.F.G.[dL].M.[am]}$$$$V2.0
step yield [7]: 59%

PEPTIDE1{P.F.F.[DBpa].L.M.[am]}$$$$V2.0
step yield (late stage modification step, dihydrochloride salt hydrate (2:7)): 91%

PEPTIDE1{P.F.F.[LBpa].L.M.[am]}$$$$V2.0
step yield (late stage modification step, dihydrochloride salt tetrahydrate): 79%

PEPTIDE1{P.F.F.[LDap].L.M.[am]}$$$$V2.0
step yield [8]: 95%

PEPTIDE1{P.F.F.[Sar].L.M.[am]}$$$$V2.0
step yield [6]: 59%

PEPTIDE1{P.F.F.[dA].L.M.[am]}$$$$V2.0
step yield [6]: 66%

PEPTIDE1{P.F.[MePhe].G.L.M.[am]}$$$$V2.0
step yield [9]: 22%

PEPTIDE1{P.F.[MePhe].[Sar].L.M.[am]}$$$$V2.0
step yield [7]: 59%

PEPTIDE1{P.F.[dF].G.L.M.[am]}$$$$V2.0
step yield [10]: 31%

PEPTIDE1{P.[DBpa].F.[dF].L.M.[am]}$$$$V2.0
step yield (late stage modification step, dihydrochloride salt hexahydrate): 59%

PEPTIDE1{P.[DPhg].F.[dF].L.M.[am]}$$$$V2.0
step yield (late stage modification step, phosphate (1:1) salt pentahydrate): 12%

PEPTIDE1{P.[LBpa].F.[dF].L.M.[am]}$$$$V2.0
step yield (late stage modification step, dihydrochloride salt hydrate (2:9)): 53%

PEPTIDE1{P.[MePhe].F.G.L.M.[am]}$$$$V2.0
step yield [10]: 85%

PEPTIDE1{P.[Pcp].[Pcp].G.L.M.[am]}$$$$V2.0
step yield (late stage modification step, hydrochloride salt sesquihydrate): 76%

PEPTIDE1{P.[dF].F.G.L.M.[am]}$$$$V2.0
step yield (late stage modification step, phosphate (1:1) salt monohydrate): 59%

PEPTIDE1{P.[dF].F.[dF].L.M.[am]}$$$$V2.0
step yield [9]: 44%

PEPTIDE1{P.[dF].F.[dF].L.[Nle].[am]}$$$$V2.0
step yield [11]: 36%

PEPTIDE1{P.[dF].[Bgl].[dF].L.M.[am]}$$$$V2.0
step yield (late stage modification step, hydrochloride salt dihydrate): 86%

PEPTIDE1{P.[dF].[DBpa].[dW].L.M.[am]}$$$$V2.0
step yield (late stage modification step, phosphate (2:3) salt trihydrate): 37%

PEPTIDE1{P.[dF].[Hfe].[dF].L.M.[am]}$$$$V2.0
step yield (late stage modification step, hydrochloride diacetate salt pentahydrate): 21%

PEPTIDE1{P.[dF].[LBpa].[dW].L.M.[am]}$$$$V2.0
step yield (late stage modification step, phosphate (2:3) salt hydrate (2:5)): 37%

PEPTIDE1{P.[dF].[Pgl].[dF].L.M.[am]}$$$$V2.0
step yield [11]: 75%

PEPTIDE1{P.[dW].F.[MeDTrp].L.M.[am]}$$$$V2.0
step yield (late stage modification step, hydrochloride hydrate (3:2)): 59%

PEPTIDE1{P.[dW].F.[dK].L.M.[am]}$$$$V2.0
step yield (late stage modification step, phosphate (1:1) acetate (1:3) salt): 26%

PEPTIDE1{P.[dW].F.[dR].L.M.[am]}$$$$V2.0
step yield (late stage modification step, dihydrochloride acetate (2:1) salt hydrate (2:5)): 61%

PEPTIDE1{P.[dW].F.[dW].L.M.[am]}$$$$V2.0
step yield (late stage modification step, phosphate (1:1) salt hydrate (2:5)): 33%
step yield (late stage modification step, phosphate (1:1) salt hydrate (2:7)): 62%

PEPTIDE1{P.[dW].F.[dW].L.[MeMet].[am]}$$$$V2.0
step yield [8]: 57%

PEPTIDE1{P.[dW].F.[dW].L.[MeNle].[am]}$$$$V2.0
step yield [12]: 30%

PEPTIDE1{P.[dW].F.[dW].[MeLeu].M.[am]}$$$$V2.0
step yield [12]: 67%

PEPTIDE1{P.[dW].G.[dW].L.M.[am]}$$$$V2.0
step yield (late stage modification step, phosphate (2:3) salt): 59%

PEPTIDE1{P.[dW].[MePhe].[dW].L.M.[am]}$$$$V2.0
step yield [8]: 23%

PEPTIDE1{[dP].F.F.G.L.M.[am]}$$$$V2.0
step yield [6]: 72%
